# Results: the supplement of paper PMC8728848
# The other results are listed elsewhere or left out.
# Legend:
# Test in all cases: glycan array binding signal (z-score within array); higher = stronger binding
# Details in all cases: glycan notation: IUPAC condensed, linker removed
# Fuc(a1-2)Gal = target: Fuc(a1-2)Gal
# Method in brief: (§1)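 Negative Z-scores can be read as non-binding. The Z-score is calculated within each array and then averaged across arrays of one protein sequence at different concentrations or buffers and across linkers. Arrays, 3228 in all, were curated from the Consortium for Functional Glycomics database and kept only where the protein sequence was available.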
# Fuc(a1-2)Gal(b1-3)GalNAc = target: Fuc(a1-2)Gal(b1-3)GalNAc
# Method in brief: as §1
# [1] = target: Fuc(a1-2)Gal(b1-3)GalNAc(a1-3)[Fuc(a1-2)]Gal(b1-4)Glc
# Method in brief: as §1
# [2] = target: Fuc(a1-2)Gal(b1-3)GalNAc(a1-3)[Fuc(a1-2)]Gal(b1-4)GlcNAc
# Method in brief: as §1
# [3] = target: Fuc(a1-2)Gal(b1-3)GalNAc(b1-3)Gal
# Method in brief: as §1
# [4] = target: Fuc(a1-2)Gal(b1-3)GalNAc(b1-3)Gal(a1-4)Gal(b1-4)Glc
# Method in brief: as §1
# [5] = target: Fuc(a1-2)Gal(b1-3)GalNAc(b1-4)[Neu5Ac(a2-3)]Gal(b1-4)Glc
# Method in brief: as §1
# Fuc(a1-2)Gal(b1-3)GlcNAc = target: Fuc(a1-2)Gal(b1-3)GlcNAc
# Method in brief: as §1
# [6] = target: Fuc(a1-2)Gal(b1-3)GlcNAc(b1-2)Man(a1-3)[Fuc(a1-2)Gal(b1-3)GlcNAc(b1-2)Man(a1-6)]Man(b1-4)GlcNAc(b1-4)GlcNAc
# Method in brief: as §1
# [7] = target: Fuc(a1-2)Gal(b1-3)GlcNAc(b1-2)Man(a1-3)[Fuc(a1-2)Gal(b1-3)GlcNAc(b1-2)Man(a1-6)]Man(b1-4)GlcNAc(b1-4)[Fuc(a1-6)]GlcNAc
# Method in brief: as §1
# [8] = target: Fuc(a1-2)Gal(b1-3)GlcNAc(b1-3)Gal(b1-4)Glc
# Method in brief: as §1
# [9] = target: Fuc(a1-2)Gal(b1-3)GlcNAc(b1-3)GalNAc
# Method in brief: as §1
# [10] = target: Fuc(a1-2)Gal(b1-3)GlcNAc(b1-3)[Fuc(a1-2)Gal(b1-3)GlcNAc(b1-6)]GalNAc
# Method in brief: as §1
# [11] = target: Fuc(a1-2)Gal(b1-3)GlcNAc(b1-3)[Gal(b1-4)GlcNAc(b1-6)]Gal(b1-4)Glc
# Method in brief: as §1
# [12] = target: Fuc(a1-2)Gal(b1-3)GlcNAc(b1-3)[Neu5Ac(a2-6)Gal(b1-4)GlcNAc(b1-6)]Gal(b1-4)Glc
# Method in brief: as §1
# [13] = target: Fuc(a1-2)Gal(b1-3)GlcNAc6S
# Method in brief: as §1
# [14] = target: Fuc(a1-2)Gal(b1-3)[Fuc(a1-4)]GlcNAc
# Method in brief: as §1
# [15] = target: Fuc(a1-2)Gal(b1-3)[Fuc(a1-4)]GlcNAc(b1-2)Man(a1-3)[Fuc(a1-2)Gal(b1-3)[Fuc(a1-4)]GlcNAc(b1-2)Man(a1-3)]Man(b1-4)GlcNAc(b1-4)GlcNAc
# Method in brief: as §1
# [16] = target: Fuc(a1-2)Gal(b1-3)[Fuc(a1-4)]GlcNAc(b1-2)Man(a1-3)[Fuc(a1-2)Gal(b1-3)[Fuc(a1-4)]GlcNAc(b1-2)Man(a1-6)]Man(b1-4)GlcNAc(b1-4)[Fuc(a1-6)]GlcNAc(b1-4)[Fuc(a1-6)]GlcNAc
# Method in brief: as §1
# [17] = target: Fuc(a1-2)Gal(b1-3)[Fuc(a1-4)]GlcNAc(b1-3)[Fuc(a1-3)[Gal(b1-4)]GlcNAc(b1-6)]Gal(b1-4)Glc
# Method in brief: as §1
# [18] = target: Fuc(a1-2)Gal(b1-3)[Fuc(a1-4)]GlcNAc(b1-3)[Gal(b1-4)GlcNAc(b1-6)]Gal(b1-4)Glc
# Method in brief: as §1
# Fuc(a1-2)Gal(b1-4)Glc = target: Fuc(a1-2)Gal(b1-4)Glc
# Method in brief: as §1
# Fuc(a1-2)Gal(b1-4)Glc6S = target: Fuc(a1-2)Gal(b1-4)Glc6S
# Method in brief: as §1
# Fuc(a1-2)Gal(b1-4)GlcNAc = target: Fuc(a1-2)Gal(b1-4)GlcNAc
# Method in brief: as §1
# [19] = target: Fuc(a1-2)Gal(b1-4)GlcNAc(b1-2)Man
# Method in brief: as §1
# [20] = target: Fuc(a1-2)Gal(b1-4)GlcNAc(b1-2)Man(a1-3)[Fuc(a1-2)Gal(b1-4)GlcNAc(b1-2)Man(a1-6)]Man(b1-4)GlcNAc(b1-4)GlcNAc
# Method in brief: as §1
# [21] = target: Fuc(a1-2)Gal(b1-4)GlcNAc(b1-2)Man(a1-3)[Fuc(a1-2)Gal(b1-4)GlcNAc(b1-2)Man(a1-6)]Man(b1-4)GlcNAc(b1-4)[Fuc(a1-6)]GlcNAc
# Method in brief: as §1
# [22] = target: Fuc(a1-2)Gal(b1-4)GlcNAc(b1-2)[Fuc(a1-2)Gal(b1-4)GlcNAc(b1-4)]Man(a1-3)[Fuc(a1-2)Gal(b1-4)GlcNAc(b1-2)Man(a1-6)]Man(b1-4)GlcNAc(b1-4)GlcNAc
# Method in brief: as §1
# [23] = target: Fuc(a1-2)Gal(b1-4)GlcNAc(b1-3)Gal(b1-4)GlcNAc
# Method in brief: as §1
# [24] = target: Fuc(a1-2)Gal(b1-4)GlcNAc(b1-3)Gal(b1-4)GlcNAc(b1-2)Man(a1-3)[Fuc(a1-2)Gal(b1-4)GlcNAc(b1-3)Gal(b1-4)GlcNAc(b1-2)Man(a1-6)]Man(b1-4)GlcNAc(b1-4)GlcNAc
# Method in brief: as §1
# [25] = target: Fuc(a1-2)Gal(b1-4)GlcNAc(b1-3)Gal(b1-4)GlcNAc(b1-3)Gal(b1-4)GlcNAc
# Method in brief: as §1
# [26] = target: Fuc(a1-2)Gal(b1-4)GlcNAc(b1-3)GalNAc
# Method in brief: as §1
# [27] = target: Fuc(a1-2)Gal(b1-4)GlcNAc(b1-3)[Fuc(a1-2)Gal(b1-4)GlcNAc(b1-6)]GalNAc
# Method in brief: as §1
# [28] = target: Fuc(a1-2)Gal(b1-4)GlcNAc(b1-3)[Fuc(a1-3)[Gal(b1-4)]GlcNAc(b1-6)]Gal(b1-4)Glc
# Method in brief: as §1
# [29] = target: Fuc(a1-2)Gal(b1-4)GlcNAc(b1-6)GalNAc
# Method in brief: as §1
# [30] = target: Fuc(a1-2)Gal(b1-4)GlcNAc6S
# Method in brief: as §1
# [31] = target: Fuc(a1-2)Gal(b1-4)[Fuc(a1-3)]GlcNAc
# Method in brief: as §1
# [32] = target: Fuc(a1-2)Gal(b1-4)[Fuc(a1-3)]GlcNAc(b1-2)Man(a1-3)[Fuc(a1-2)Gal(b1-4)[Fuc(a1-3)]GlcNAc(b1-2)Man(a1-6)]Man(b1-4)GlcNAc(b1-4)[Fuc(a1-6)]GlcNAc
# Method in brief: as §1
# [33] = target: Fuc(a1-2)Gal(b1-4)[Fuc(a1-3)]GlcNAc(b1-2)[Fuc(a1-2)Gal(b1-4)[Fuc(a1-3)]GlcNAc(b1-4)]Man(a1-3)[Fuc(a1-2)Gal(b1-4)[Fuc(a1-3)]GlcNAc(b1-2)Man(a1-6)]Man(b1-4)GlcNAc(b1-4)GlcNAc
# Method in brief: as §1
# [34] = target: Fuc(a1-2)Gal(b1-4)[Fuc(a1-3)]GlcNAc(b1-3)Gal(b1-4)[Fuc(a1-3)]GlcNAc
# Method in brief: as §1
# [35] = target: Fuc(a1-2)Gal(b1-4)[Fuc(a1-3)]GlcNAc(b1-3)Gal(b1-4)[Fuc(a1-3)]GlcNAc(b1-3)Gal(b1-4)[Fuc(a1-3)]GlcNAc
# Method in brief: as §1
# [36] = target: Fuc(a1-2)Gal(b1-4)[Fuc(a1-3)]GlcNAc(b1-3)GalNAc
# Method in brief: as §1
# [37] = target: Fuc(a1-2)Gal(b1-4)[Fuc(a1-3)]GlcNAc(b1-3)[Neu5Ac(a2-6)Gal(b1-4)GlcNAc(b1-6)]Gal(b1-4)Glc
# Method in brief: as §1
# [38] = target: Fuc(a1-2)Gal3S(b1-4)GlcNAc
# Method in brief: as §1
# [39] = target: Fuc(a1-2)Gal6S(b1-3)GlcNAc
# Method in brief: as §1
binder,measurement,setting,value
Clec39 (Caenorhabditis elegans) (protein) MTSFYDNSSSSSKPVPLKTSRAQKIQILIFDNWKLILYGAISTLILVLAIMFSTLFFALPAANCDENSEPTKYYTTNAEITTTITTTNQKTTSTASSHLTTISSSATQIYSESSSSSTSQSTFTQSPPEISTTTIAPSDFSCQHGFTLVNNKCWKLVTSNQARPDADKICNGYGGATLFSIKSEQDNRAMIHFVKGQDIDFLWSGLLCSAGEPISCIWDIENGSTANYSNFADGFPNIVYGNCVYFITSGDEAGQWGNEQCGQVMNFVCELPATFQGKDGCKNNYEKSCYLRFDLNLTVPQAQNFCLEKCANLVSIHSANEVRFIMTIYDFIGEILIGALAPAQDFIYWLDGTPANYNNLKFFYNSTCVHMTVAPGMQNVGKWFTRFCTETGKFLCKRSIKNSCT,glycan array binding signal (z-score),Fuc(a1-2)Gal,-0.254
same,glycan array binding signal (z-score),Fuc(a1-2)Gal(b1-3)GalNAc,-0.426
same,glycan array binding signal (z-score),[1],-0.415
same,glycan array binding signal (z-score),[2],0.145
same,glycan array binding signal (z-score),[3],-1.23
same,glycan array binding signal (z-score),[4],-0.017
same,glycan array binding signal (z-score),[5],-0.371
same,glycan array binding signal (z-score),Fuc(a1-2)Gal(b1-3)GlcNAc,-0.889
same,glycan array binding signal (z-score),[6],2.06
same,glycan array binding signal (z-score),[7],-0.245
same,glycan array binding signal (z-score),[8],-0.274
same,glycan array binding signal (z-score),[9],1.86
same,glycan array binding signal (z-score),[10],-0.937
same,glycan array binding signal (z-score),[11],-0.284
same,glycan array binding signal (z-score),[12],-0.38
same,glycan array binding signal (z-score),[13],0.532
same,glycan array binding signal (z-score),[14],-0.114
same,glycan array binding signal (z-score),[15],0.733
same,glycan array binding signal (z-score),[16],0.398
same,glycan array binding signal (z-score),[17],-0.85
same,glycan array binding signal (z-score),[18],0.204
same,glycan array binding signal (z-score),Fuc(a1-2)Gal(b1-4)Glc,-0.435
same,glycan array binding signal (z-score),Fuc(a1-2)Gal(b1-4)Glc6S,0.27
same,glycan array binding signal (z-score),Fuc(a1-2)Gal(b1-4)GlcNAc,-0.181
same,glycan array binding signal (z-score),[19],0.227
same,glycan array binding signal (z-score),[20],1.4
same,glycan array binding signal (z-score),[21],-0.766
same,glycan array binding signal (z-score),[22],1.44
same,glycan array binding signal (z-score),[23],-1.48
same,glycan array binding signal (z-score),[24],0.68
same,glycan array binding signal (z-score),[25],0.752
same,glycan array binding signal (z-score),[26],-0.783
same,glycan array binding signal (z-score),[27],0.009
same,glycan array binding signal (z-score),[28],0.552
same,glycan array binding signal (z-score),[29],0.715
same,glycan array binding signal (z-score),[30],-0.018
same,glycan array binding signal (z-score),[31],0.187
same,glycan array binding signal (z-score),[32],0.634
same,glycan array binding signal (z-score),[33],3.52
same,glycan array binding signal (z-score),[34],0.991
same,glycan array binding signal (z-score),[35],-0.882
same,glycan array binding signal (z-score),[36],0.506
same,glycan array binding signal (z-score),[37],0.751
same,glycan array binding signal (z-score),[38],0.022
same,glycan array binding signal (z-score),[39],-0.678

# 3 entries from above, as tab-separated lines.
binder	measurement	setting	value
Clec39 (Caenorhabditis elegans) (protein) MTSFYDNSSSSSKPVPLKTSRAQKIQILIFDNWKLILYGAISTLILVLAIMFSTLFFALPAANCDENSEPTKYYTTNAEITTTITTTNQKTTSTASSHLTTISSSATQIYSESSSSSTSQSTFTQSPPEISTTTIAPSDFSCQHGFTLVNNKCWKLVTSNQARPDADKICNGYGGATLFSIKSEQDNRAMIHFVKGQDIDFLWSGLLCSAGEPISCIWDIENGSTANYSNFADGFPNIVYGNCVYFITSGDEAGQWGNEQCGQVMNFVCELPATFQGKDGCKNNYEKSCYLRFDLNLTVPQAQNFCLEKCANLVSIHSANEVRFIMTIYDFIGEILIGALAPAQDFIYWLDGTPANYNNLKFFYNSTCVHMTVAPGMQNVGKWFTRFCTETGKFLCKRSIKNSCT	glycan array binding signal (z-score)	[37]	0.751
same	glycan array binding signal (z-score)	[38]	0.022
same	glycan array binding signal (z-score)	[39]	-0.678
